Results deposited as PubChem BioAssay AID1259308 (NCATS, 2017)
Test: 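Candidate targets for better recombinant protein yield in mammalian cells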 (primary screen). System: human HEK293 embryonic kidney cells stably expressing firefly luciferase (HEK-CMV-Luc2-Hygro). Reagents: single siRNA against human genes, 0.8 pmol siRNA per well. Timing: 72 h. Read-out: 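Reporter luminescence and viable-cell signal on separate replicate plates, given as percent of non-targeting control and median/MAD z-scores, plus per-cell luciferase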. Scale: total luciferase, z-score and total luciferase, % of control: higher = more reporter protein produced. Hit rule: 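An siRNA counts as active if its total luciferase robust z-score exceeds 3; genes with two or more such siRNAs out of three were retested with fresh siRNAs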. Calls: active = raised luciferase; inactive = no rise.
The whole screen tested about 59,000 reagents; shown is an unselected part. About 1,510 of all reagents (2.6%) count as active. 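Calls use total luciferase alone and ignore viability, so some active siRNAs may act by altering cell number.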 Unmarked entries are inactive. The numbers tell different reagents against one gene apart. Further read-outs or replicates are left out here.

ST8SIA2 (GeneID 8128) #1 → total luciferase, z-score = -1.7; total luciferase, % of control = 48.1
ST8SIA2 (GeneID 8128) #2 → total luciferase, z-score = -1.61; total luciferase, % of control = 49.9
ST8SIA2 (GeneID 8128) #3 → total luciferase, z-score = -0.699; total luciferase, % of control = 68
DCC (GeneID 1630) #1 → total luciferase, z-score = 2.53; total luciferase, % of control = 132
DCC (GeneID 1630) #2 → total luciferase, z-score = 0.0778; total luciferase, % of control = 83.4
DCC (GeneID 1630) #3 → total luciferase, z-score = 3.42 (active); total luciferase, % of control = 150
RXFP2 (GeneID 122042) #1 → total luciferase, z-score = -1.09; total luciferase, % of control = 60.2
RXFP2 (GeneID 122042) #2 → total luciferase, z-score = 0.237; total luciferase, % of control = 86.6
RXFP2 (GeneID 122042) #3 → total luciferase, z-score = 2.2; total luciferase, % of control = 126
CACNA1I (GeneID 8911) #1 → total luciferase, z-score = 2.53; total luciferase, % of control = 132
CACNA1I (GeneID 8911) #2 → total luciferase, z-score = 0.386; total luciferase, % of control = 89.6
CACNA1I (GeneID 8911) #3 → total luciferase, z-score = 0.485; total luciferase, % of control = 91.5
SCO1 (GeneID 6341) #1 → total luciferase, z-score = 0.231; total luciferase, % of control = 86.5
SCO1 (GeneID 6341) #2 → total luciferase, z-score = 0.999; total luciferase, % of control = 102
SCO1 (GeneID 6341) #3 → total luciferase, z-score = 0.0985; total luciferase, % of control = 83.8
TWNK (GeneID 56652) #1 → total luciferase, z-score = 0.177; total luciferase, % of control = 85.4
TWNK (GeneID 56652) #2 → total luciferase, z-score = 1.17; total luciferase, % of control = 105
TWNK (GeneID 56652) #3 → total luciferase, z-score = 0.209; total luciferase, % of control = 86.1
EID2B (GeneID 126272) #1 → total luciferase, z-score = 0.149; total luciferase, % of control = 84.8
EID2B (GeneID 126272) #2 → total luciferase, z-score = -0.503; total luciferase, % of control = 71.9
EID2B (GeneID 126272) #3 → total luciferase, z-score = -0.828; total luciferase, % of control = 65.4
CATSPER4 (GeneID 378807) #1 → total luciferase, z-score = -1.97; total luciferase, % of control = 42.7
CATSPER4 (GeneID 378807) #2 → total luciferase, z-score = -0.218; total luciferase, % of control = 77.6
CATSPER4 (GeneID 378807) #3 → total luciferase, z-score = 0.349; total luciferase, % of control = 88.8
SMIM10 (GeneID 644538) #1 → total luciferase, z-score = -0.0973; total luciferase, % of control = 80
SMIM10 (GeneID 644538) #2 → total luciferase, z-score = -0.0365; total luciferase, % of control = 81.2
SMIM10 (GeneID 644538) #3 → total luciferase, z-score = 1.69; total luciferase, % of control = 116
NUDT13 (GeneID 25961) #1 → total luciferase, z-score = -0.73; total luciferase, % of control = 67.4
NUDT13 (GeneID 25961) #2 → total luciferase, z-score = -1.19; total luciferase, % of control = 58.3
NUDT13 (GeneID 25961) #3 → total luciferase, z-score = -1.21; total luciferase, % of control = 57.7
KRT9 (GeneID 3857) #1 → total luciferase, z-score = 1.96; total luciferase, % of control = 121
KRT9 (GeneID 3857) #2 → total luciferase, z-score = -0.962; total luciferase, % of control = 62.8
KRT9 (GeneID 3857) #3 → total luciferase, z-score = -0.835; total luciferase, % of control = 65.3
